# Experimental data as given in publication PMC8384837.
# Residue numbers refer to the chain shown, from its start. Some of the results follow. For some of these results: At the low end of the ranking, values are background and their order means little.
# Key:
# Conditions in all cases: yeast three-hybrid, YBZ-1, SC-Leu-His + 0.5 mM 3-AT, 4 days
# [1] = molecular target: T1, PUM1 PUF domain R6-LYM N1043L + Q1047M (UniProt Q14671)
# T1 sequence: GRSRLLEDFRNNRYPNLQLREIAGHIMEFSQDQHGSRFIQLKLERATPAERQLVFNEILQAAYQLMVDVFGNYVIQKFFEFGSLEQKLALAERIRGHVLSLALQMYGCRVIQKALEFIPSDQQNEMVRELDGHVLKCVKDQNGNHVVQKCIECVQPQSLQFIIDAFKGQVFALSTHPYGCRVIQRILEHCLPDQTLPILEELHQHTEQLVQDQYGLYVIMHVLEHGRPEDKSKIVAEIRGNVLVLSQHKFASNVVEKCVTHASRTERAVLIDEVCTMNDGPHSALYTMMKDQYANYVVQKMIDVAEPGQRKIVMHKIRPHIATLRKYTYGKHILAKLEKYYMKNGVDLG
# [2] = molecular target: T2, PUM1 PUF domain R6-LYS N1043L + Q1047S (UniProt Q14671)
# T2 sequence: T1 sequence with M220S
# [3] = molecular target: T3, PUM1 PUF domain R6-LYV N1043L + Q1047V (UniProt Q14671)
# T3 sequence: T1 sequence with M220V
# [4] = molecular target: T4, PUM1 PUF domain R6-MFS N1043M + Y1044F + Q1047S (UniProt Q14671)
# T4 sequence: T1 sequence with L216M, Y217F, M220S
# [5] = molecular target: T5, PUM1 PUF domain R6-MYG N1043M + Q1047G (UniProt Q14671)
# T5 sequence: T1 sequence with L216M, M220G
# [6] = molecular target: T6, PUM1 PUF domain R6-MYV N1043M + Q1047V (UniProt Q14671)
# T6 sequence: T1 sequence with L216M, M220V
# [7] = molecular target: T7, PUM1 PUF domain R6-NFW Y1044F + Q1047W (UniProt Q14671)
# T7 sequence: T1 sequence with L216N, Y217F, M220W
# [8] = molecular target: T8, PUM1 PUF domain R6-NRG Y1044R + Q1047G (UniProt Q14671)
# T8 sequence: T1 sequence with L216N, Y217R, M220G
# [9] = molecular target: T9, PUM1 PUF domain R6-NRS Y1044R + Q1047S (UniProt Q14671)
# T9 sequence: T1 sequence with L216N, Y217R, M220S
# [10] = molecular target: T10, PUM1 PUF domain R6-NWP Y1044W + Q1047P (UniProt Q14671)
# T10 sequence: T1 sequence with L216N, Y217W, M220P
# [11] = molecular target: T11, PUM1 PUF domain R6-NYL Q1047L (UniProt Q14671)
# T11 sequence: T1 sequence with L216N, M220L
# [12] = molecular target: T12, PUM1 PUF domain R6-QRS N1043Q + Y1044R + Q1047S (UniProt Q14671)
# T12 sequence: T1 sequence with L216Q, Y217R, M220S
# [13] = molecular target: T13, PUM1 PUF domain R6-RFG N1043R + Y1044F + Q1047G (UniProt Q14671)
# T13 sequence: T1 sequence with L216R, Y217F, M220G
# [14] = molecular target: T14, PUM1 PUF domain R6-RFR N1043R + Y1044F + Q1047R (Homo sapiens) (UniProt Q14671)
# T14 sequence: T1 sequence with L216R, Y217F, M220R
# [15] = molecular target: T15, PUM1 PUF domain R6-RFS N1043R + Y1044F + Q1047S (UniProt Q14671)
# T15 sequence: T1 sequence with L216R, Y217F, M220S
# [16] = molecular target: T16, PUM1 PUF domain R6-RFV N1043R + Y1044F + Q1047V (UniProt Q14671)
# T16 sequence: T1 sequence with L216R, Y217F, M220V
# [17] = molecular target: T17, PUM1 PUF domain R6-RHG N1043R + Y1044H + Q1047G (UniProt Q14671)
# T17 sequence: T1 sequence with L216R, Y217H, M220G
# [18] = molecular target: T18, PUM1 PUF domain R6-RHR N1043R + Y1044H + Q1047R (Homo sapiens) (UniProt Q14671)
# T18 sequence: T1 sequence with L216R, Y217H, M220R
# [19] = molecular target: T19, PUM1 PUF domain R6-RHS N1043R + Y1044H + Q1047S (UniProt Q14671)
# T19 sequence: T1 sequence with L216R, Y217H, M220S
# [20] = molecular target: T20, PUM1 PUF domain R6-RPG N1043R + Y1044P + Q1047G (UniProt Q14671)
# T20 sequence: T1 sequence with L216R, Y217P, M220G
# [21] = molecular target: T21, PUM1 PUF domain R6-RRE N1043R + Y1044R + Q1047E (Homo sapiens) (UniProt Q14671)
# T21 sequence: T1 sequence with L216R, Y217R, M220E
# [22] = molecular target: T22, PUM1 PUF domain R6-RWL N1043R + Y1044W + Q1047L (UniProt Q14671)
# T22 sequence: T1 sequence with L216R, Y217W, M220L
# [23] = molecular target: T23, PUM1 PUF domain R6-RWV N1043R + Y1044W + Q1047V (UniProt Q14671)
# T23 sequence: T1 sequence with L216R, Y217W, M220V
# [24] = molecular target: T24, PUM1 PUF domain R6-RYA N1043R + Q1047A (Homo sapiens) (UniProt Q14671)
# T24 sequence: T1 sequence with L216R, M220A
# [25] = molecular target: T25, PUM1 PUF domain R6-RYG N1043R + Q1047G (Homo sapiens) (UniProt Q14671)
# T25 sequence: T1 sequence with L216R, M220G
# [26] = molecular target: T26, PUM1 PUF domain R6-RYL N1043R + Q1047L (UniProt Q14671)
# T26 sequence: T1 sequence with L216R, M220L
# [27] = molecular target: T27, PUM1 PUF domain R6-RYR N1043R + Q1047R (Homo sapiens) (UniProt Q14671)
# T27 sequence: T1 sequence with L216R, M220R
# [28] = molecular target: T28, PUM1 PUF domain R6-SFA N1043S + Y1044F + Q1047A (UniProt Q14671)
# T28 sequence: T1 sequence with L216S, Y217F, M220A
# [29] = molecular target: T29, PUM1 PUF domain R6-SFC N1043S + Y1044F + Q1047C (UniProt Q14671)
# T29 sequence: T1 sequence with L216S, Y217F, M220C
# [30] = molecular target: T30, PUM1 PUF domain R6-SFG N1043S + Y1044F + Q1047G (UniProt Q14671)
# T30 sequence: T1 sequence with L216S, Y217F, M220G
# [31] = molecular target: T31, PUM1 PUF domain R6-SFM N1043S + Y1044F + Q1047M (UniProt Q14671)
# T31 sequence: T1 sequence with L216S, Y217F
# [32] = molecular target: T32, PUM1 PUF domain R6-SFS N1043S + Y1044F + Q1047S (Homo sapiens) (UniProt Q14671)
# T32 sequence: T1 sequence with L216S, Y217F, M220S
# [33] = molecular target: T33, PUM1 PUF domain R6-SFV N1043S + Y1044F + Q1047V (UniProt Q14671)
# T33 sequence: T1 sequence with L216S, Y217F, M220V
# [34] = molecular target: T34, PUM1 PUF domain R6-SHE N1043S + Y1044H + Q1047E (UniProt Q14671)
# T34 sequence: T1 sequence with L216S, Y217H, M220E
# [35] = molecular target: T35, PUM1 PUF domain R6-SRD N1043S + Y1044R + Q1047D (UniProt Q14671)
# T35 sequence: T1 sequence with L216S, Y217R, M220D
# [36] = molecular target: T36, PUM1 PUF domain R6-SRE N1043S + Y1044R + Q1047E (UniProt Q14671)
# T36 sequence: T1 sequence with L216S, Y217R, M220E
# [37] = molecular target: T37, PUM1 PUF domain R6-SRQ N1043S + Y1044R (UniProt Q14671)
# T37 sequence: T1 sequence with L216S, Y217R, M220Q
# [38] = molecular target: T38, PUM1 PUF domain R6-SWA N1043S + Y1044W + Q1047A (UniProt Q14671)
# T38 sequence: T1 sequence with L216S, Y217W, M220A
# [39] = molecular target: T39, PUM1 PUF domain R6-SWC N1043S + Y1044W + Q1047C (UniProt Q14671)
# T39 sequence: T1 sequence with L216S, Y217W, M220C
# [40] = molecular target: T40, PUM1 PUF domain R6-SWD N1043S + Y1044W + Q1047D (UniProt Q14671)
# T40 sequence: T1 sequence with L216S, Y217W, M220D
# [41] = molecular target: T41, PUM1 PUF domain R6-SWE N1043S + Y1044W + Q1047E (UniProt Q14671)
# T41 sequence: T1 sequence with L216S, Y217W, M220E
# [42] = molecular target: T42, PUM1 PUF domain R6-SWG N1043S + Y1044W + Q1047G (UniProt Q14671)
# T42 sequence: T1 sequence with L216S, Y217W, M220G
# [43] = molecular target: T43, PUM1 PUF domain R6-SWQ N1043S + Y1044W (UniProt Q14671)
# T43 sequence: T1 sequence with L216S, Y217W, M220Q
sequence,measurement,setting,value
GGCUAGAACUAGUGGAUCCCCCGGCGCCCGGCGGCUCGAGCCCGGGUAAGUGCAAAUAGUCUGCAUGCCGCCGGGCGCCAUGCCUGCAGGUCGACUCUAGAAAACAUG,binding signal (log2 enrichment (interaction score)),[1],< -6.91
same,binding signal (log2 enrichment (interaction score)),[2],< -7.54
same,binding signal (log2 enrichment (interaction score)),[3],< -7.86
same,binding signal (log2 enrichment (interaction score)),[4],< -6.36
same,binding signal (log2 enrichment (interaction score)),[5],< -7.16
same,binding signal (log2 enrichment (interaction score)),[6],< -6.58
same,binding signal (log2 enrichment (interaction score)),[7],-4.13
same,binding signal (log2 enrichment (interaction score)),[8],-7.15
same,binding signal (log2 enrichment (interaction score)),[9],< -7.96
same,binding signal (log2 enrichment (interaction score)),[10],-3.9
same,binding signal (log2 enrichment (interaction score)),[11],< -6.56
same,binding signal (log2 enrichment (interaction score)),[12],< -7.37
same,binding signal (log2 enrichment (interaction score)),[13],< -6.68
same,binding signal (log2 enrichment (interaction score)),[14],-2.98
same,binding signal (log2 enrichment (interaction score)),[15],< -6.01
same,binding signal (log2 enrichment (interaction score)),[16],< -7.3
same,binding signal (log2 enrichment (interaction score)),[17],< -7.31
same,binding signal (log2 enrichment (interaction score)),[18],-3.02
same,binding signal (log2 enrichment (interaction score)),[19],< -7.54
same,binding signal (log2 enrichment (interaction score)),[20],< -8.56
same,binding signal (log2 enrichment (interaction score)),[21],0.32
same,binding signal (log2 enrichment (interaction score)),[22],< -6.15
same,binding signal (log2 enrichment (interaction score)),[23],< -6.32
same,binding signal (log2 enrichment (interaction score)),[24],-0.44
same,binding signal (log2 enrichment (interaction score)),[25],-3.78
same,binding signal (log2 enrichment (interaction score)),[26],< -7.61
same,binding signal (log2 enrichment (interaction score)),[27],-2.48
same,binding signal (log2 enrichment (interaction score)),[28],< -7.78
same,binding signal (log2 enrichment (interaction score)),[29],< -7.63
same,binding signal (log2 enrichment (interaction score)),[30],-6.68
same,binding signal (log2 enrichment (interaction score)),[31],-5.59
same,binding signal (log2 enrichment (interaction score)),[32],-3.96
same,binding signal (log2 enrichment (interaction score)),[33],< -8.16
same,binding signal (log2 enrichment (interaction score)),[34],-4.97
same,binding signal (log2 enrichment (interaction score)),[35],< -7.15
same,binding signal (log2 enrichment (interaction score)),[36],< -7.69
same,binding signal (log2 enrichment (interaction score)),[37],< -7.81
same,binding signal (log2 enrichment (interaction score)),[38],< -7.8
same,binding signal (log2 enrichment (interaction score)),[39],< -6.3
same,binding signal (log2 enrichment (interaction score)),[40],-5.06
same,binding signal (log2 enrichment (interaction score)),[41],-4.28
same,binding signal (log2 enrichment (interaction score)),[42],-6.34
same,binding signal (log2 enrichment (interaction score)),[43],-5.45

# Reprinted at random: 2 entries already listed.
sequence,measurement,setting,value
GGCUAGAACUAGUGGAUCCCCCGGCGCCCGGCGGCUCGAGCCCGGGUAAGUGCAAAUAGUCUGCAUGCCGCCGGGCGCCAUGCCUGCAGGUCGACUCUAGAAAACAUG,binding signal (log2 enrichment (interaction score)),[36],< -7.69
same,binding signal (log2 enrichment (interaction score)),[31],-5.59
